# Results taken from PMC12859559.
# No constants are given. Whether binding was seen depends on the method and setting. Some results given as binding are weak or reduced against the parent protein; the word gives no strength.
# B1: DLAT (protein, UniProt Q8BMF4 86-642)
# chain: SLPPHQKVPLPSLSPTMQAGTIARWEKKEGEKISEGDLIAEVETDKATVGFESLEECYMAKILVPEGTRDVPVGSIICITVEKPQDIEAFKNYTLDLAAAAAPQAAPAAAPAPAAAPAAPSASAPGSSYPTHMQIVLPALSPTMTMGTVQRWEKKVGEKLSEGDLLAEIETDKATIGFEVQEEGYLAKILVPEGTRDVPLGAPLCIIVEKQEDIAAFADYRPTEVTSLKPQAAPPAPPPVAAVPPTPQPVAPTPSAAPAGPKGRVFVSPLAKKLAAEKGIDLTQVKGTGPEGRIIKKDIDSFVPSKAAPAAAAAMAPPGPRVAPAPAGVFTDIPISNIRRVIAQRLMQSKQTIPHYYLSVDVNMGEVLLVRKELNKMLEGKGKISVNDFIIKASALACLKVPEANSSWMDTVIRQNHVVDVSVAVSTPAGLITPIVFNAHIKGLETIASDVVSLASKAREGKLQPHEFQGGTFTISNLGMFGIKNFSAIINPPQACILAIGASEDKLIPADNEKGFDVASVMSVTLSCDHRVVDGAVGAQWLAEFKKYLEKPITMLL
# Target: DLAT (mouse (endogenous in 4T1)) (UniProt Q8BMF4)
# Assay: Western blot of oligomer bands after SDS-PAGE; RIPA lysates of 4T1 cells treated 24 h with PBS, FFC, ES-Cu, ES-Cu@FFC or ES-Cu&GOx@FFC; DLAT and DLAT oligomers detected with a DLAT antibody
binder,measurement,value
B1,binding,binds
